Experimental data as given in PubChem BioAssay AID1508600 (Functional Genomics Laboratory (NCATS/FGL), 2020).
Among all 53,000 sequences or so, about 3,700 (7%) were called active.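 The calls were made as follows: active = gene knockdowns whose robust z-score for IL-1 alpha signal is at least 2 or at most -2, so actives lie on both sides; inactive = the rest.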 The list shows a part of the results.

Assay: Components of the Cytosolic LPS Sensing Pathway: Gene Identification via Genome-wide siRNA Screen;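 also: robust z of the log signal after scaling to non-targeting control siRNA wells of the plate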
Details: RAW264.7 macrophages, IL-1a HTRF, actives lie on both sides, screened at 100 nM (by protocol), cells primed 5 h with Pam3CSK4 first
Outline: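 RAW264.7; siRNA 100 nM final, RNAiMAX, 48h 37 degrees C; Pam3CSK4 5 h; LipidA + TransIT-TKO 24 h; IL-1a HTRF; CellTiter-Glo viability; robust z vs negative-control median.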
With GGGCUACUCUCUCAGGAUCTT against Dedd2 the z-score was inactive: 0.676.
For CCUACCGCUAUGUAGUCAGTT against Dnase1, the z-score was inactive: 0.329.
For CCCUAGCUUUCUUCGAUGUTT against Spag6, the z-score was inactive: 0.162.
In the case of GGAACUGGAUGAAAACGGATT against S100a1, the z-score is reported as inactive: 0.917.
With GGAAAUCCAACUUCUUUCATT against Ebf2 the z-score was active: 2.7.
With “GGUGCCUACCAUGAAGAACTT against 1700010D01Rik” the z-score was inactive: 0.452.
With GCAGCACCAUCACUAGUGUTT against Ndufs6 the z-score was inactive: 0.399.
With GGGCAUUGGAUGUGCUGAATT against Clic3 the z-score was inactive: -0.473.
In the case of GCUAAAUUUCCCAUAGGAATT against Pmch, the z-score is reported as inactive: 0.822.
For CCACAAAUGCUUCAAGCUATT against Defb29, the z-score was inactive: 0.125.
For GGAUCUUUAAGUUUUCCCGTT against Kcnd2, the z-score was inactive: 0.297.
With GGAAAGUCGAUAAUGACAATT against Wdr12 the z-score was inactive: 0.449.
In the case of GCCAUUGGAGUAUAUCUUGTT against Olfr873, the z-score is reported as inactive: -0.273.
In the case of GCUAGGAAGAGAGUGAUCUTT against Alg1, the z-score is reported as inactive: -1.03.
For GCACUUUAAGAGACAAUGUTT against Gpr63, the z-score was inactive: 0.302.
For “GGAAACUUUUGAUUGUAACTT against 2810021J22Rik”, the z-score was inactive: -0.0991.
In the case of GGUGGUACCAAGUACAACUTT against Deaf1, the z-score is reported as inactive: 1.22.
In the case of GCUACUAUCACAUAUGCACTT against Olfr1122, the z-score is reported as active: -2.09.
For GCAGUUACACUGAAUACAUTT against Kctd8, the z-score was inactive: 0.633.
With GCUUAAUAAUUUCAUCCAGTT against Brms1l the z-score was active: 2.44.
In the case of GGGUUCGAGGGUUCUUGUGTT against Gna12, the z-score is reported as inactive: -1.18.
For CCAUAUGUGAGAAACUACATT against Dbf4, the z-score was inactive: 0.258.
In the case of CCCUCAACUUUCAGAUCAGTT against Naa10, the z-score is reported as active: 2.81.
For GGAAUACGAGGAAUACCAGTT against Cplx4, the z-score was inactive: 0.506.
In the case of GCACCUUGUCAACCAUUACTT against Kctd7, the z-score is reported as inactive: 0.842.
In the case of CCAUAAGUAGGAUUCUAUCTT against Meis2, the z-score is reported as inactive: -0.447.
For CGCCAUAGUCAUCUUCUAATT against AI987944, the z-score was inactive: -1.36.
With GGGUUAUCGAUAGAAAAUATT against Rag2 the z-score was inactive: 0.0164.
In the case of GGCUUUGCUGAAUGUCUCATT against Nrn1l, the z-score is reported as inactive: 0.443.
For GGGCCGAUCAUGGUUAACATT against Cpt1a, the z-score was inactive: -1.84.
In the case of CCGGAAAUUUCUGAUGGAGTT against Eif4ebp1, the z-score is reported as active: 2.19.
For GCAUGCCCGUAAUCAAGUGTT against Racgap1, the z-score was inactive: 0.104.
For GCACAGUAGUUCUUGCAUCTT against Olfr891, the z-score was inactive: 0.13.
In the case of GGGAGUUUCACUGAAGCCATT against Prkch, the z-score is reported as inactive: -1.52.
For GGAGGUGAUUUCGGGUAACTT against Ddr1, the z-score was inactive: 0.304.
For GGCAAUUCCCAGCACGAUGTT against Usp43, the z-score was inactive: -1.24.
In the case of GCCCAAUAUACUCUAAGGGTT against Cdh20, the z-score is reported as inactive: -0.306.
For GGUGUAUUUCACGGGACCATT against Rela, the z-score was inactive: -1.
With GCUAAUGACCUGUGCCAAGTT against Sftpb the z-score was inactive: -0.24.
In the case of GCUUCAAAAGGACAGGUCATT against Galnt13, the z-score is reported as inactive: -0.2.
With GGGCACCAGUGGUUAUUAATT against Chst14 the z-score was inactive: 0.232.
In the case of GCUGAUAUGCUAUUGUAGATT against Defa5, the z-score is reported as inactive: 0.0696.
With CCUGGAGAGCAUUGACAUCTT against Irx1 the z-score was inactive: 0.624.
With CCUUAUGGUGCGCAUUAAATT against Kcnq1 the z-score was inactive: -1.1.
In the case of GCUACGUCUUUUUUAGGGCTT against Mrap, the z-score is reported as inactive: 0.373.
For GGCAUUGUGAAAUCCUAUUTT against Lhx5, the z-score was inactive: -1.31.
For AAAGACUGUGACCUCUGGGTT against Tgoln2, the z-score was inactive: 0.711.
In the case of CCCACUGUACAUUUGUAAATT against Prss27, the z-score is reported as inactive: 0.447.
For GGCUCCUGGAAUUCUUACGTT against Snx11, the z-score was inactive: -0.648.
With GGAAGACCCUAAUCUAGUCTT against Cox5b the z-score was active: 2.1.
With GGGAUGUGUAUUUAAUUACTT against Nr6a1 the z-score was inactive: -0.764.
In the case of GGUGAAUUCUCAUGCAUGGTT against Timp2, the z-score is reported as inactive: -0.513.
With GGAAACAAGGGACUCUGUATT against Col4a4 the z-score was inactive: 0.906.
With CCCUGUUGAUGAACAAAUCTT against Ddt the z-score was inactive: -0.262.
In the case of GGGAAUCGGUGGAUUUGGATT against Ier3ip1, the z-score is reported as inactive: -0.969.
For GCCUCUGGUGGAAGUAUACTT against Sec14l3, the z-score was inactive: -0.918.
For “UCAUUGGUCCAGCCUAUAGTT against A330070K13Rik”, the z-score was inactive: -0.534.
With GCAUGAAAAGCCUCUAUAUTT against Cxcl15 the z-score was inactive: 0.33.
With CGUUUUUAUGAGGAGGCCUTT against N4bp3 the z-score was inactive: -0.897.
For GGCUUGCAAAGUGAAUCCUTT against Gls2, the z-score was inactive: -0.417.
In the case of CCAUCUCAUCCCACGACACTT against Mrgprx1, the z-score is reported as inactive: -0.334.
In the case of GCUGCUAAGGAAUUUAAAATT against Topors, the z-score is reported as inactive: 0.971.
For GUUGGACUAAGCGACCUUGTT against Rps29, the z-score was inactive: -1.35.
In the case of “GGUGUUUCAUAAGAAGGAATT against 1700010H22Rik”, the z-score is reported as inactive: -1.01.
For GGAAACUCCGUCCCAAUUGTT against Trim68, the z-score was inactive: 1.39.
In the case of CGCAAAAUGCUUACCUGCUTT against Mfsd2a, the z-score is reported as inactive: -0.274.
In the case of GGAUCCCAAGUUCAAAGCCTT against Rfxap, the z-score is reported as active: 2.07.
In the case of GGAAAUAUCCUAAACAGAATT against Gdpd2, the z-score is reported as inactive: -0.864.
In the case of CCUCUCUGAAAACAUGUCUTT against Sntb2, the z-score is reported as inactive: 0.683.
For CCUCGGUAUUAACGUGGAATT against Dmrta2, the z-score was inactive: -0.818.
For GCUCCAAAGAGAUUGAGACTT against Ccdc65, the z-score was inactive: -1.63.
With GGCCAAAGUGCAGAUGAAATT against Klhl38 the z-score was inactive: -0.917.
In the case of GGAAGCCCUUAUGGACGAATT against Ang2, the z-score is reported as inactive: 0.751.
With GGAGAUACAGGAUAUUAUUTT against Nme5 the z-score was inactive: -0.0528.
For GGACUGUGCAUUUUCAGGUTT against Sumo1, the z-score was inactive: 0.258.
In the case of GGCUACAUUAGUGCCUGGUTT against Trp53rkb, the z-score is reported as inactive: 0.469.
In the case of CCGGCUUUGAAGUCAUUACTT against Slc4a3, the z-score is reported as inactive: 1.92.
For CCAUCUAUUACGGAACGGGTT against Olfr324, the z-score was inactive: 1.36.
In the case of GGCAGGAAAACAAAAGGGATT against Cobll1, the z-score is reported as inactive: -0.384.
With GGCUUCCAAAACAAAUCAATT against Rgn the z-score was inactive: 0.857.
In the case of CGAGAUUAUCAGUCAAUUGTT against Tex24, the z-score is reported as active: 2.02.
In the case of CCCUGAUCUUGUGAGAAUUTT against Gmnc, the z-score is reported as inactive: -1.83.
In the case of CCUGACUUCUACUAAAGAATT against Xxylt1, the z-score is reported as inactive: 1.1.
With GGUUACCUGUAGAUGAUUCTT against Slc4a1ap the z-score was inactive: -0.861.
For GGUACAGAACAUGUUCUAATT against Klf4, the z-score was inactive: 1.18.
For GCAUUUUAGAAGGUUAUCGTT against Dmrt2, the z-score was inactive: -1.23.
With GUAGGAUAUACCAUCUACATT against Olfr700 the z-score was inactive: -0.708.
In the case of GCAUUCAUGAAAGUGUUAGTT against Olfr164, the z-score is reported as inactive: 0.0366.
In the case of GGUGAAGUUACAGUCAAAUTT against Nolc1, the z-score is reported as active: 2.54.
For GGUAGACUAUCUGGAGACATT against Olfml3, the z-score was inactive: 0.553.
In the case of GGUAUCCUUGCUUUGUGACTT against Gm5111, the z-score is reported as inactive: 0.37.
With GGACCUAUUUCUCUGCUCCTT against Col6a6 the z-score was inactive: 0.457.
With GGAGUAUGUCCAUUGUCACTT against Vmn1r230 the z-score was active: -2.54.
For GGCACAAGAGCAAAGGCUUTT against Gmppb, the z-score was inactive: -0.575.
With GGUCAUGAACCUCAUCAUCTT against Nckap1l the z-score was inactive: -0.552.
In the case of GGACAAGUAUGUCACAGCGTT against Kcnh2, the z-score is reported as inactive: -0.705.
In the case of GGUCCUCAUCUGGAACCUGTT against Coro2b, the z-score is reported as inactive: -0.279.
With GGGUCAUAAAAGUUGUUCUTT against Mtmr4 the z-score was inactive: -0.417.
With GGGCACUUAUGCAAGCAAATT against Pcyt1b the z-score was inactive: 0.204.
In the case of “GGAGAAUGACUAGGUAAUCTT against A130010J15Rik”, the z-score is reported as inactive: 1.27.
For GGAGAGCCCUAUAGAAGUUTT against Zfp639, the z-score was inactive: 0.0696.
In the case of GCUAUUGGUGCUUUUAUACTT against Olfr1198, the z-score is reported as inactive: 1.28.
In the case of GGAGAUGUUGGACUUCAUGTT against Nxnl2, the z-score is reported as active: -2.42.
With GGAUACGAUGUGCUAAGGUTT against Rars the z-score was inactive: 1.51.
In the case of GCAAUUAGGACUUCAAGAGTT against Snx14, the z-score is reported as inactive: -0.784.
With GGAUUUAGGGACAACACAATT against Nol4l the z-score was inactive: -0.981.
For GCUCGAACUGUGUUCUAACTT against Polr3b, the z-score was inactive: 1.82.
